Data source: PubChem BioAssay AID1259424 (University of Nebraska Medical Center, 2018)
This is an unselected part of about 14,000 reagents. 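Higher correlation or smaller distance means closer resemblance to KSR1 loss; control wells, including KSR1 knockdowns, recur on many plates.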 Some reagents were tested in more than one well and are listed for each. Not all columns of the deposit are shown. Not given: the time to read-out.

Test: 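Rank knockdowns across the genome by resemblance to the KSR1 depletion profile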 (primary screen)
Cell system: human HCT116 colon cancer cells
Reagent: siRNA pool against human genes, 50 nM
Measured: 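Log2 levels of six mRNAs (branched-DNA multiplex), adjusted by two reference genes and the non-targeting median, then scored against the average KSR1 knockdown pattern as Pearson r and euclidean distance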
Direction: mean correlation with KSR1 profile and KSR1 correlation: higher = expression change more like KSR1 knockdown; mean distance from KSR1 profile: higher = expression change less like KSR1 knockdown

| gene | mean correlation with KSR1 profile | mean distance from KSR1 profile | KSR1 correlation, replicate 1 | KSR1 correlation, replicate 2 |
| --- | --- | --- | --- | --- |
| GTF2F2 | -0.715 | 1.62 | -0.304 | -0.926 |
| MYG1 | -0.4 | 3.01 | -0.229 | 0.0257 |
| ZNF304 | -0.492 | 3.5 | -0.389 | -0.371 |
| BTC | 0.0314 | 2.37 | -0.253 | 0.413 |
| UVSSA | -0.919 | 2.71 | -0.941 | -0.69 |
| RPL12 | -0.267 | 2.42 | -0.435 | -0.383 |
| ITM2A | -0.0801 | 3.66 | 0.116 | -0.0853 |
| IFNA2 | -0.337 | 1.95 | -0.478 | -0.331 |
| SLC7A11 | 0.104 | 1.73 | 0.407 | -0.253 |
| LMCD1 | 0.0155 | 1.82 | -0.269 | -0.169 |
| HNF4A | 0.503 | 1.18 | 0.548 | 0.0178 |
| FGFBP1 | 0.748 | 1.94 | 0.683 | 0.353 |
| BEND5 | -0.231 | 3.41 | -0.254 | 0.0741 |
| FANCA | -0.453 | 3.32 | -0.535 | -0.475 |
| IL1R1 | 0.0379 | 2.56 | 0.0368 | 0.0254 |
| RHO | 0.555 | 1.92 | 0.503 | 0.721 |
| SAMD4A | -0.828 | 1.46 | -0.81 | -0.926 |
| ADGRF2P | 0.231 | 2.23 | 0.0962 | 0.249 |
| GUSB | -0.0851 | 2.87 | 0.000625 | -0.207 |
| NBEAL2 | -0.508 | 2.98 | -0.448 | -0.527 |
| PPM1H | -0.495 | 2.33 | -0.402 | -0.489 |
| WARS2 | 0.126 | 1.47 | 0.253 | 0.0649 |
| MYLK2 | 0.0132 | 1.87 | -0.0434 | 0.485 |
| ZCCHC10 | 0.184 | 2.56 | 0.286 | -0.0412 |
| ZNF644 | 0.573 | 1.26 | 0.556 | 0.191 |
| ZNF644 | -0.017 | 2.48 | -0.7 | 0.314 |
| TSPY1 | -0.195 | 1.83 | -0.205 | -0.171 |
| APOL6 | 0.768 | 0.962 | 0.594 | 0.701 |
| DCX | 0.205 | 3.47 | -0.0563 | 0.64 |
| SLC7A3 | 0.63 | 1.26 | 0.546 | 0.371 |
| MAP3K7CL | -0.113 | 3.51 | -0.119 | -0.169 |
| SLC27A4 | -0.65 | 3.11 | -0.661 | -0.62 |
| METTL13 | 0.314 | 1.52 | 0.544 | 0.177 |
| LRRC8D | 0.643 | 1.2 | 0.802 | 0.553 |
| FAM204A | 0.0856 | 3.42 | 0.126 | 0.124 |
| GABRD | 0.515 | 1.72 | 0.648 | 0.421 |
| LZTR1 | -0.142 | 5.39 | -0.159 | -0.113 |
| GMFB | 0.0849 | 2.3 | 0.158 | 0.0636 |
| AIFM1 | 0.172 | 2.89 | 0.066 | 0.243 |
| PRLR | -0.702 | 1.5 | -0.651 | -0.563 |
| SNCG | -0.327 | 4.65 | -0.223 | -0.28 |
| AMMECR1L | 0.784 | 1.02 | 0.671 | 0.744 |
| TNFRSF17 | -0.02 | 1.88 | -0.0197 | -0.194 |
| RPS2P45 | 0.497 | 1.23 | 0.487 | 0.281 |
| LTAP1 | 0.178 | 0.866 | -0.268 | 0.15 |
| KLHL21 | -0.383 | 2.27 | 0.0396 | -0.441 |
| STK32B | 0.617 | 2.18 | 0.782 | 0.64 |
| MINDY1 | -0.491 | 4.19 | -0.37 | -0.562 |
| CORO7 | 0.635 | 2.49 | 0.677 | 0.623 |
| CA2 | -0.512 | 1.66 | -0.36 | -0.375 |
